This passage reports log2 fold change results from the supplement of paper PMC10849652.

Sequences of proteins named here, by UniProt entry; tags and fusion partners are left off. A change or cut given only in a name is not applied to a line headed by its entry.
UniProt Q9NRM2: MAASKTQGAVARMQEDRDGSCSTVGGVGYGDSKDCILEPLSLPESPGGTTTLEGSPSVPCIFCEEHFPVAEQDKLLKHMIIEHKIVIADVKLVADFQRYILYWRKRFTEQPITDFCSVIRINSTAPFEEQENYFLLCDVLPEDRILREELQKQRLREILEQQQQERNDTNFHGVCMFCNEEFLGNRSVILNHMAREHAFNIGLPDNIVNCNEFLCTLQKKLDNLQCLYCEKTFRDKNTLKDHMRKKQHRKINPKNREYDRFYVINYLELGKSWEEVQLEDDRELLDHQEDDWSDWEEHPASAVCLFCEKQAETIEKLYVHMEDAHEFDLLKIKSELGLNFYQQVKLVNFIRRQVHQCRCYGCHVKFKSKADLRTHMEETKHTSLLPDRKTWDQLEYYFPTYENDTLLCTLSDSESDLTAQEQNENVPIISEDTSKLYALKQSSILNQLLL
UniProt Q6N043: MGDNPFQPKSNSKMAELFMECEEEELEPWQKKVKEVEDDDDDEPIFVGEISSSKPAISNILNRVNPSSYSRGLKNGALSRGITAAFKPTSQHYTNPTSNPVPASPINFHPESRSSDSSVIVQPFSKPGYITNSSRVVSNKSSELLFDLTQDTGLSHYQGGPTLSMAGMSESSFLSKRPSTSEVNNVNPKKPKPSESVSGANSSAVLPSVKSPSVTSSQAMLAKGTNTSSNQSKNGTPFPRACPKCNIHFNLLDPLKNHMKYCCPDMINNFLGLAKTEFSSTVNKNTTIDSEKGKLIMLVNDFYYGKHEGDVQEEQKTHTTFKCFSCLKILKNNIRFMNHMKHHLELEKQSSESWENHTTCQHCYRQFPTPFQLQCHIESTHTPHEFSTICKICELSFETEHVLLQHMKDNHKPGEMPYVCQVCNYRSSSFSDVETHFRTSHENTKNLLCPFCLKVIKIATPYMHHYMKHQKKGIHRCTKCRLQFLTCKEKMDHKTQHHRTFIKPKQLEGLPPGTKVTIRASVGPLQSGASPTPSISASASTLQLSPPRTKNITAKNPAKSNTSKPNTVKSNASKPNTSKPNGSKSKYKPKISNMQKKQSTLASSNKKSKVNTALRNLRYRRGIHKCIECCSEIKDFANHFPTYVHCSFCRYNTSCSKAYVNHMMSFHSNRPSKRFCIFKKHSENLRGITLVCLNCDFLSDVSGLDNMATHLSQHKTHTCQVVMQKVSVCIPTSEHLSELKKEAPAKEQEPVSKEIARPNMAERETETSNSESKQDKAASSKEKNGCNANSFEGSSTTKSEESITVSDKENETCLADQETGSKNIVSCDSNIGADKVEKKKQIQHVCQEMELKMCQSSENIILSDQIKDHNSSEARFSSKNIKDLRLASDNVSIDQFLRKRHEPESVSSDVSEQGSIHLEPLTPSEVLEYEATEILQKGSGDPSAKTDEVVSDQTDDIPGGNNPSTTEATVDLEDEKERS

Structures are written as SMILES. The list shows a part of the results. Residues, ends and D or L forms follow the SMILES beside them. *: point of attachment. Cbz = O=C(OCc1ccccc1)*

The target of one assay is ZNF277 (UniProt Q9NRM2). Description: log2 fold change, soluble protein after heating vs DMSO (PISA); higher = thermal stabilisation; K562 cells, 10 uM, 30 min; active = over 0.2 and 3.5 SD of the protein, either way, in both replicates (recomputed). In a few lines:
(§1)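 Values are thermal stability changes relative to control samples and are taken from duplicates. They are stated as log2 fold changes. Before quantification by TMTpro 16plex LC-MS/MS with equalised channel sums, K562 cells at 2×10^6 cells/mL were treated with 10 μM compound for 30 min, heated in aliquots for 3 min across 48°C-58°C, pooled, extracted in PBS with 0.5% NP-40 at 4°C, and centrifuged at 21,000xg for 90 min to give the soluble supernatant.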
As for `NC(=O)c1cnc(N[C@@H]2CCCC[C@@H]2N)nc1Nc1cccc(-n2nccn2)c1`, the log2 fold change is inactive: 0.067.

With `C/C(=N\NC(=O)c1cccc(S(=O)(=O)N2CCOCC2)c1)c1cc(Cl)ccc1O`, the log2 fold change is inactive: -0.031.

As for `COC(=O)N[C@@H](C)CNc1nccc(-c2cn(C(C)C)nc2-c2cc(Cl)cc(NS(C)(=O)=O)c2F)n1` [encorafenib], the log2 fold change was inactive: -0.259.

Regarding `Cn1cc(-c2ccc3nnc(C(F)(F)c4ccc5ncccc5c4)n3n2)cn1`, the log2 fold change is inactive: -0.064.

`Cc1ccc(C(=O)N(CCCN)[C@@H](c2nc3cc(Cl)ccc3c(=O)n2Cc2ccccc2)C(C)C)cc1` [ispinesib]: the log2 fold change was inactive: -0.27.

Consider `CNCc1ccc(-c2[nH]c3cc(F)cc4c3c2CCNC4=O)cc1` [rucaparib], for which the log2 fold change is inactive: 0.

For the compound `c1cc(OCCN2CCCCC2)cc(-c2n[nH]c3ccc(-c4nnc[nH]4)cc23)c1`, the log2 fold change is inactive: -0.275.

Turning to `O=C(CCCCCCNC(=O)c1cnc(N(c2ccccc2)c2ccccc2Cl)nc1)NO` [citarinostat], the log2 fold change was inactive: 0.306.

Turning to `CCCc1cc(C)[nH]c(=O)c1CNC(=O)c1cc(-c2ccnc(N3CCN(C)CC3)c2)cc2c1cnn2C(C)C`, the log2 fold change is inactive: 0.154.

Consider `C[C@@H](N)c1ccc(C(=O)Nc2ccnc3[nH]ccc23)cc1`, for which the log2 fold change is inactive: 0.315.

`O=C1NC(=NCc2cccs2)S/C1=C\c1ccc2ncccc2c1`: the log2 fold change was inactive: 0.019.

`CC[C@H](C)n1cc(C)c2c(C(=O)NCc3c(C)cc(C)[nH]c3=O)cc(-c3ccc(N4CCNCC4)nc3)cc21`: the log2 fold change was inactive: 0.02.

On to `FC(F)(F)c1ccc(/C=C/c2nc(COc3ccc(CCCCn4ccnn4)cc3)co2)cc1` [mubritinib], for which the log2 fold change is inactive: 0.192.

On to `CC(=O)c1cnc2ccc(-c3cc(Cl)c(O)c(Cl)c3)nc2c1N[C@H]1CC[C@H](CN(C)C)CC1`, for which the log2 fold change was inactive: -0.017.

`Cc1ccc(NC(=O)c2cccc(N(C)C)c2)cc1NC(=O)c1ccc(O)cc1`: the log2 fold change is inactive: -0.097.

For the compound `Cc1ccc(NC(=O)c2ccc(CN3CC[C@H](N(C)C)C3)c(C(F)(F)F)c2)cc1Nc1nccc(-c2cncnc2)n1` [bafetinib], the log2 fold change is inactive: 0.246.

Turning to `CC(C)C[C@@H](C=O)NC(=O)[C@H](CC(C)C)NC(=O)[C@H](CC(C)C)NC(=O)OCc1ccccc1` (Cbz-Leu-Leu-Leu-aldehyde), the log2 fold change was inactive: 0.137.

In the case of `Cc1nc(Nc2n[nH]c3c2CN(C(=O)N[C@H](CN(C)C)c2ccccc2)C3(C)C)c2sccc2n1`, the log2 fold change was inactive: 0.231.

Consider `Oc1cc(-c2nc(-c3ccccc3)[nH]c2-c2ccncc2)ccc1Cl`, for which the log2 fold change was inactive: -0.004.

In the case of `CC[C@@H]1C(=O)N(C)c2cnc(Nc3ccc(C(=O)NC4CCN(C)CC4)cc3OC)nc2N1C1CCCC1`, the log2 fold change is inactive: 0.328.

For `CC(C)(C)Cn1c(N)nc2ccc(-c3[nH]c(C(C)(C)C)nc3-c3ccc(F)cc3)nc21` [ralimetinib], the log2 fold change was inactive: 0.116.

Regarding `O=C1c2ccccc2-c2n[nH]c3cccc1c23`, the log2 fold change was inactive: 0.065.

As for `Cc1ncc(-c2ccnc(Nc3ccc(S(C)(=O)=O)cc3)n2)n1C(C)C`, the log2 fold change is inactive: 0.017.

Regarding `COc1cc(C(=O)O)ccc1NC(=O)[C@@H]1N[C@@H](CC(C)(C)C)[C@](C#N)(c2ccc(Cl)cc2F)[C@H]1c1cccc(Cl)c1F` [idasanutlin], the log2 fold change is inactive: -0.003.

`CO[C@H]1C[C@@H]2CC[C@@H](C)[C@@](O)(O2)C(=O)C(=O)N2CCCC[C@H]2C(=O)O[C@H]([C@H](C)C[C@@H]2CC[C@H](n3cnnn3)[C@H](OC)C2)CC(=O)[C@H](C)/C=C(\C)[C@@H](O)[C@@H](OC)C(=O)[C@H](C)C[C@H](C)/C=C/C=C/C=C/1C` [zotarolimus]: the log2 fold change is inactive: -0.084.

For `Cc1cn(-c2cc(NC(=O)c3ccc(C)c(Nc4nccc(-c5cccnc5)n4)c3)cc(C(F)(F)F)c2)cn1` [nilotinib], the log2 fold change was inactive: -0.207.

As to `COc1cc2ncnc(Nc3ccc(F)c(Cl)c3)c2cc1OCCCN1CCOCC1` [gefitinib], the log2 fold change was inactive: -0.053.

Take `O=C1NC(=O)/C(=C\c2ccc3nccnc3c2)S1`: the log2 fold change was inactive: -0.108.

As to `NC1(c2ccc(-c3nc4ccn5c(=O)[nH]nc5c4cc3-c3ccccc3)cc2)CCC1`, the log2 fold change is inactive: 0.107.

`Cn1cc(-c2ccc3c(c2)CCN3C(=O)Cc2cccc(C(F)(F)F)c2)c2c(N)ncnc21`: the log2 fold change was inactive: -0.163.

A further assay deals with ZNF280D (UniProt Q6N043). Described as above. In a few lines:
as §1
On to `CC[C@H](C)n1cc(C)c2c(C(=O)NCc3c(C)cc(C)[nH]c3=O)cc(-c3ccc(N4CCNCC4)nc3)cc21`, for which the log2 fold change is inactive: 0.085.

For the compound `Cc1nc(Nc2n[nH]c3c2CN(C(=O)N[C@H](CN(C)C)c2ccccc2)C3(C)C)c2sccc2n1`, the log2 fold change is inactive: 0.071.

Take `Cc1ncc(-c2ccnc(Nc3ccc(S(C)(=O)=O)cc3)n2)n1C(C)C`: the log2 fold change is inactive: -0.055.

As for `Cc1cn(-c2cc(NC(=O)c3ccc(C)c(Nc4nccc(-c5cccnc5)n4)c3)cc(C(F)(F)F)c2)cn1` [nilotinib], the log2 fold change is inactive: -0.167.

For `COc1cc2ncnc(Nc3ccc(F)c(Cl)c3)c2cc1OCCCN1CCOCC1` [gefitinib], the log2 fold change is inactive: -0.002.
